Measurements published in patent EP4799624A2 (priority 2021, dated 2023).
Read-outs that look alike come from different tables or passages of the source. For some of these results: At least one read-out could not be matched to a standard name with certainty. For some of these results: For at least one compound, name, drawing or mass did not settle the structure.

Assays:
Ebola VLP entry = details: speculated active compounds; read-out: IC50, block of Ebola VLP entry in vitro; cited from earlier work
SARS-CoV-2 [1] = details: same methods as used in this study; cited from earlier work
[2] = lung
SARS-CoV-2 [3] = details: dose curves fitted with the four parameter Hill Equation

Question: With `Cc1c(-c2ccc(O)cc2)n(Cc2ccc(OCCN3CCCCCC3)cc2)c2ccc(O)cc12` [Bazedoxifene, reference compound] as the molecule, how does the IC50 (Ebola VLP entry) read?
Answer: < 10 µM

Question: And the EC50 (SARS-CoV-2 [1])?
Answer: 3.47 µM

Question: With `Cc1c(-c2ccc(O)cc2)n(Cc2ccc(OCCN3CCCCC3)cc2)c2ccc(O)cc12` [Pipendoxifene, 2-(4-hydroxyphenyl)-3-methyl-1-[[4-(2-piperidin-1-ylethoxy)phenyl]methyl]indol-5-ol] as the molecule, how does the “Cmax (ng/g) ± SE” value ([2]; 50 mg/kg PO five consecutive days (Group 1, MD)) read?
Answer: 5613 ± 925 ng/g

Question: What about the “Cmax (ng/g) ± SE” value ([2]; 50 mg/kg PO single dose (Group 1, SD)) of the same molecule?
Answer: 8310 ± 364 ng/g

Question: And the “Cmax (ng/g) ± SE” value ([2]; 250 mg/kg PO five consecutive days (Group 2, MD))?
Answer: 39000 ± 8845 ng/g

Question: And the “Cmax (ng/g) ± SE” value ([2]; 250 mg/kg PO single dose (Group 2, SD))?
Answer: 24733 ± 10000 ng/g

Question: With `CCC(CC)COC(=O)[C@H](C)N[P@](=O)(OC[C@H]1O[C@@](C#N)(c2ccc3c(N)ncnn23)[C@H](O)[C@@H]1O)Oc1ccccc1` [Remdesivir, reference compound] as the molecule, how does the “Nh (Hill) coefficient” value (SARS-CoV-2 [3]) read?
Answer: 3.3
